Among the data in publication doi:10.1101/2020.12.28.424526 (bioRxiv, 2020) are binding values, retold here.

No constants are given. Whether binding was seen depends on the method and setting. In cells and extracts the contact can be indirect. Some binding calls cover weakened binding; strength is not graded here.

In this assay the target is T1, 5'-3' exoribonuclease-2 (XRN-2) (C. elegans (endogenous in worm lysate)) (UniProt Q9U299).
T1 sequence: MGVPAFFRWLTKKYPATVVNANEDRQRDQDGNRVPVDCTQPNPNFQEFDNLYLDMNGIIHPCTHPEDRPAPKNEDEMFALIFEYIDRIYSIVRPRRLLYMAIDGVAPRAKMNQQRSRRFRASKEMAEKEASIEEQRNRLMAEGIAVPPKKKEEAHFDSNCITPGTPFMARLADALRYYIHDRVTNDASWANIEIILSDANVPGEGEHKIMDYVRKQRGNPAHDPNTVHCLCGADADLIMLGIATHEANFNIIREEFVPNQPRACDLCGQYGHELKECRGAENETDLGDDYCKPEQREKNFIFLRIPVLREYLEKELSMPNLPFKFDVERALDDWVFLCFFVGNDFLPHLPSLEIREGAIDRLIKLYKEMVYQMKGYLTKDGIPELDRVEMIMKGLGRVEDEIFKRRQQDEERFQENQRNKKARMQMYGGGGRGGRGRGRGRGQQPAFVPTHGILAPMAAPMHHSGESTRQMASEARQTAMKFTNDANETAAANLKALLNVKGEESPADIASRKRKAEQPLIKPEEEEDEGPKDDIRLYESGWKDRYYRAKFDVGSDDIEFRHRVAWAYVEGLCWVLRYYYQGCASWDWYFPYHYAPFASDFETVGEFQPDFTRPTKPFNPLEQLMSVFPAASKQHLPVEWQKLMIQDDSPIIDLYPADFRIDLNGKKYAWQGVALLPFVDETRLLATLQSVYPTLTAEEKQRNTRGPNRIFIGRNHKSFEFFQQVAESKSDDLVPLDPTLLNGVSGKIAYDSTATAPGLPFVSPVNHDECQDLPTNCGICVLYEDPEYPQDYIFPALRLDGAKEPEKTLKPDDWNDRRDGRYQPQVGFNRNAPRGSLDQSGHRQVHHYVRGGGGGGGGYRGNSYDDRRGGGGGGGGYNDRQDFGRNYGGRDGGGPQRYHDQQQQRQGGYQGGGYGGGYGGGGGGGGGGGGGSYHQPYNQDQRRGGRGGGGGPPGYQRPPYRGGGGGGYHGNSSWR
The assay is described as follows: co-IP.

B1: partner of XRN two-1 (PAXT-1) (natural protein, C. elegans (endogenous in worm lysate), UniProt Q21738 1-335, looked up)
chain: MGKLEDVEAEKKLWESDDAWELRKAFMLAHYDDYPKIQLQCLSQLFINVTLLGCEYSQTLMQKIRTMGAGIAANKDRTKTGSYVKASAAKKRQAVKTSDLEGASDESKKVKMEKSPSPVARESFDERLGKLKASLAMTPHHLTGEQMMKTATNSCLMKWHVNKINQKIEITIDRYVAFRHTFSQYCVDPRDCAINTLIESILSCDAAVHEESYEIRFDGVPVDECYAKSVTRRLAKIKSAVSNGAHTVKGLTTYLDAVNMSMIQNTQKLEGWSQQLDLVTADLLLSSRVLSSTECTKPAMATIANQMSEDVCQLILNDKINVINSMKSHSSLAFQ
Consider B1, for which the binding result is given as “binds”.
